Results published in the supplement of paper PMC12823440, “Inhibitors supercharge kinase turnover through native proteolytic circuits” (Nature, 2025).
Counter-ions that a name gives are not always drawn. Some of the results follow. Hit calls seldom repeat between salt and free forms of one compound.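 Kinases were expressed as nanoluciferase fusions in K562 cells and luminescence was read every 4 h between 2 and 18 h as percent of control, DMSO set to 100% and a positive control to 0%. A time point counts as decreased when the signal drops significantly (2 sigma). The hit call is the authors' own, does not follow from the count of time points alone, and its rule is not shown.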

Protein sequences, listed by entry. Tags and fused reporters are not part of them. Lines headed by an entry give the natural chain unless they say otherwise; changes in a name come on top.
UniProt Q9UM73: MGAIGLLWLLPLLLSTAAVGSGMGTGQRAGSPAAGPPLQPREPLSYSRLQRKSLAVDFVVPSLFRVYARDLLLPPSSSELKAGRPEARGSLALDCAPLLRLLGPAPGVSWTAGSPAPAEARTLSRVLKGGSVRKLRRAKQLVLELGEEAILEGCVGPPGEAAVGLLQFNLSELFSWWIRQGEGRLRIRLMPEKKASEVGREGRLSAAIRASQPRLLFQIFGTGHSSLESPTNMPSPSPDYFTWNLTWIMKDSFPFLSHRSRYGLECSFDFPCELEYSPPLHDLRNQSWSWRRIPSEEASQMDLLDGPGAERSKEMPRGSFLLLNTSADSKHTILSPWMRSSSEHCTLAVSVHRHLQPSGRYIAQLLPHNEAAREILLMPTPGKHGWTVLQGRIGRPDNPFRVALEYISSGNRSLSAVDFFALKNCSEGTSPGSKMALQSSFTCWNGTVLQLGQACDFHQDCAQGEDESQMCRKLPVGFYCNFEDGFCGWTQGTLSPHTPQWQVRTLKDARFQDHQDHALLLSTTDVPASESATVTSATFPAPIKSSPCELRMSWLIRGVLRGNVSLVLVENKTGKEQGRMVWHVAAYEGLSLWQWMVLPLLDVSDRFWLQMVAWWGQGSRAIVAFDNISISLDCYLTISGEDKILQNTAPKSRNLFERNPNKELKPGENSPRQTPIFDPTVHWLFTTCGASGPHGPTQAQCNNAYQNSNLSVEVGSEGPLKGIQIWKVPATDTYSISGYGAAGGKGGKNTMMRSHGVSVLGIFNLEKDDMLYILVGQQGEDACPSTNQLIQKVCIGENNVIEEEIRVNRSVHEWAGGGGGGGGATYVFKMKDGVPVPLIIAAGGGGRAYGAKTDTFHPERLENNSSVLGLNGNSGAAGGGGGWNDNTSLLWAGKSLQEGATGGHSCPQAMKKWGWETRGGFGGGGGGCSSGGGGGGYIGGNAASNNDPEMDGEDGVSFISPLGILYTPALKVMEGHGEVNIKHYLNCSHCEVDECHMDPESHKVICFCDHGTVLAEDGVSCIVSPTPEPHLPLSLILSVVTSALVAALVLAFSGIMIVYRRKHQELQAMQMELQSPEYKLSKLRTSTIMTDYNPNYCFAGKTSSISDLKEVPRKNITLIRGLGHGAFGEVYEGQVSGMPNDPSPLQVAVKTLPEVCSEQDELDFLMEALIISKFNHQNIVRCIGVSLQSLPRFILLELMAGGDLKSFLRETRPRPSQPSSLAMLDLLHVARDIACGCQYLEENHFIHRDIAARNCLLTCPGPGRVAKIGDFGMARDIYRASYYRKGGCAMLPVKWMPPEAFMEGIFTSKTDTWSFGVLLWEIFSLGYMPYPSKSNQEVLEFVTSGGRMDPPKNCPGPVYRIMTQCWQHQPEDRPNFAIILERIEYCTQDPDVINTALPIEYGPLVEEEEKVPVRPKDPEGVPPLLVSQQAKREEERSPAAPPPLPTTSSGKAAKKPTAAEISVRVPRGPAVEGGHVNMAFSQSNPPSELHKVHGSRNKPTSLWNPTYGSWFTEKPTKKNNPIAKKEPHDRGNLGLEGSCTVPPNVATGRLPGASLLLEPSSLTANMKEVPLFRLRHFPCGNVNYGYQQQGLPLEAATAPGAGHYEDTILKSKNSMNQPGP
UniProt P10398: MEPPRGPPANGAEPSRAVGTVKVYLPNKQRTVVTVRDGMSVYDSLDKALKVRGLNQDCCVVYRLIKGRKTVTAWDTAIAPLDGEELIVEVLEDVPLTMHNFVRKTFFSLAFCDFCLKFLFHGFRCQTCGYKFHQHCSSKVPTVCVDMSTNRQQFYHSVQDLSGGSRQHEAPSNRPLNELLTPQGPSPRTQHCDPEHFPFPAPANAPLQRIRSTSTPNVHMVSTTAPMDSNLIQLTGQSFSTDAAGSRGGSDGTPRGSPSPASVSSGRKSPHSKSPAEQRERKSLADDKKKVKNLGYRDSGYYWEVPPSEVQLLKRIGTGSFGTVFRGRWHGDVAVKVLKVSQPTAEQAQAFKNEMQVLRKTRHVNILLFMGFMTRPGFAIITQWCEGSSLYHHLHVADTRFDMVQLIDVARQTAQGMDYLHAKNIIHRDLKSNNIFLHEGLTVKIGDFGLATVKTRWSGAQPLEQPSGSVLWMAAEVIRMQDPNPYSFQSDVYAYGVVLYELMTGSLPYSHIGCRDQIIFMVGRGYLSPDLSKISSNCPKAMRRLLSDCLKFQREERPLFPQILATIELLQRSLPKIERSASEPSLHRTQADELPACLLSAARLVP
UniProt O14965: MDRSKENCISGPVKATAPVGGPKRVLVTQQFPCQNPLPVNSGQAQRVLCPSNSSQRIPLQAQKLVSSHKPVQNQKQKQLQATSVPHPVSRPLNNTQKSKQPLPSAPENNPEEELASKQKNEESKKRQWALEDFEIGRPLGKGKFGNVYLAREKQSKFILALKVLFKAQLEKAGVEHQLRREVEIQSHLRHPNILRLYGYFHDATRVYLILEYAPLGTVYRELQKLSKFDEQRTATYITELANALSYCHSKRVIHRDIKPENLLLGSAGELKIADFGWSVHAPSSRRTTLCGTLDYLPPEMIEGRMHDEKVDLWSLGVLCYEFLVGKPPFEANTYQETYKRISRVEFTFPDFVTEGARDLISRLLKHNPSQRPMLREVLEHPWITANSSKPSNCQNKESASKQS
UniProt Q96GD4, whole entry: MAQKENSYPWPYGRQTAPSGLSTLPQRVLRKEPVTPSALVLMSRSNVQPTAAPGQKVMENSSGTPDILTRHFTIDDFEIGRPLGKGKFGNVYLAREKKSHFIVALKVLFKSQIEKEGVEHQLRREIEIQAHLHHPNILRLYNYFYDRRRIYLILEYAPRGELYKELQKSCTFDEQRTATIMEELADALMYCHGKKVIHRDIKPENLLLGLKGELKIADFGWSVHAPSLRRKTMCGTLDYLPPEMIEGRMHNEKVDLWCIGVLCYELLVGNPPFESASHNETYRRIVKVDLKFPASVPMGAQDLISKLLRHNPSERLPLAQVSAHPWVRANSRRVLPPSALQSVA
UniProt Q9UQB9: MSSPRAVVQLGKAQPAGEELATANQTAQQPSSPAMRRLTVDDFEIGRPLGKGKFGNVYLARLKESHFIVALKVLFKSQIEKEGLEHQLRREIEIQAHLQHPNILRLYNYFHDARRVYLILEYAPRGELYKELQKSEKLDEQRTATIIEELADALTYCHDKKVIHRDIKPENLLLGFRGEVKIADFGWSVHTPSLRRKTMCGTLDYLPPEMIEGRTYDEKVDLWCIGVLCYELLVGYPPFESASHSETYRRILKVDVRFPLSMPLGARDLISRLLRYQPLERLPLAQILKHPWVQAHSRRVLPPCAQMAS
UniProt P51451: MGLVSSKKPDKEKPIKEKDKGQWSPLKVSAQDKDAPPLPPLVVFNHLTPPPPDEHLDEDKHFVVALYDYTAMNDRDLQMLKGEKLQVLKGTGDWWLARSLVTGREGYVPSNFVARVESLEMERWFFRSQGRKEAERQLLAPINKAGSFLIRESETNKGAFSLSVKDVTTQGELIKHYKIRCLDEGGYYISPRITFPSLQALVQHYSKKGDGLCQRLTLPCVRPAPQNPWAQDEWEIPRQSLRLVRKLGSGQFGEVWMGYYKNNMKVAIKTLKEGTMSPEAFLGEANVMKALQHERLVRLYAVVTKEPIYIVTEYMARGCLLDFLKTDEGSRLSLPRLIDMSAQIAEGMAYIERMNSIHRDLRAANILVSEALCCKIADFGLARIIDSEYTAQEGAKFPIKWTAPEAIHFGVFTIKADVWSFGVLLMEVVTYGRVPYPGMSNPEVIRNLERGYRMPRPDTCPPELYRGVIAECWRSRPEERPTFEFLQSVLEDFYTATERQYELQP
UniProt P51813: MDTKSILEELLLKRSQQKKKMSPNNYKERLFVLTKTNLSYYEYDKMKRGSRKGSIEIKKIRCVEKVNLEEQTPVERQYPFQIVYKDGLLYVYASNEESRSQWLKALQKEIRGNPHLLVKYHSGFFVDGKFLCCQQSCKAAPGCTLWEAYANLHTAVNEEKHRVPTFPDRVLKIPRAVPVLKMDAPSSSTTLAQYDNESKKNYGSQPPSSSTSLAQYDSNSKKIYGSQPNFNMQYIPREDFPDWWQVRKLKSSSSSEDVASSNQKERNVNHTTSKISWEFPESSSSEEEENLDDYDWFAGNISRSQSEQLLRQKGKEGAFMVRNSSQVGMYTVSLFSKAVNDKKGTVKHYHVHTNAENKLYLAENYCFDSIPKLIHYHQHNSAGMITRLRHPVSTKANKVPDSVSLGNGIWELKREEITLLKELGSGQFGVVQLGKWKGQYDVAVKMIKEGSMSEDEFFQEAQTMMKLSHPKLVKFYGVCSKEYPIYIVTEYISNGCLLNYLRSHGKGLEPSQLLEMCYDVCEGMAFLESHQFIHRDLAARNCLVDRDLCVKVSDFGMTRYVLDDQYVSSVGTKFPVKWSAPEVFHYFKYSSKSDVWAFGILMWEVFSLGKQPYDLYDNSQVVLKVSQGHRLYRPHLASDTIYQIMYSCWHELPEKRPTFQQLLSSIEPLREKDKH
UniProt P15056, whole entry, looked up: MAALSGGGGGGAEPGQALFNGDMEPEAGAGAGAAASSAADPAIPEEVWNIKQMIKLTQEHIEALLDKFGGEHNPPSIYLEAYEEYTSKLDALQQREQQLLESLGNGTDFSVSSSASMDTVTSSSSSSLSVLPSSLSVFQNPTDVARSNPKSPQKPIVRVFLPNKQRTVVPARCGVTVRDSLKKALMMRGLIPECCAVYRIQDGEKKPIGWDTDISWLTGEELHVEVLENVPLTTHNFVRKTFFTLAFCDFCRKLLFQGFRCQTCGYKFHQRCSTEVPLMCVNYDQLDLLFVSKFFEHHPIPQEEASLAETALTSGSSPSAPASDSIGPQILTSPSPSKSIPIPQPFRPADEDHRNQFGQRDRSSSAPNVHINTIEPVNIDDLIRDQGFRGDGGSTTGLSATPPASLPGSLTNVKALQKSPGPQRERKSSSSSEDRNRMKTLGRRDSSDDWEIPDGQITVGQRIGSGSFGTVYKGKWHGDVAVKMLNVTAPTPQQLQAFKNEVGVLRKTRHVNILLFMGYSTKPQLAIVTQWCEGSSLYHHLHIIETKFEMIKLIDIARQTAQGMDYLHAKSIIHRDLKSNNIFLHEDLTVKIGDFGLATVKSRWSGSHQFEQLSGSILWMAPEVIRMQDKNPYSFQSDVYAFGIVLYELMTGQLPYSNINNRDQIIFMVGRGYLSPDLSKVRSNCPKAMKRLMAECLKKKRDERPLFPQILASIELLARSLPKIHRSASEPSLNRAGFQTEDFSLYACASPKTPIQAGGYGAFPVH
UniProt Q06187: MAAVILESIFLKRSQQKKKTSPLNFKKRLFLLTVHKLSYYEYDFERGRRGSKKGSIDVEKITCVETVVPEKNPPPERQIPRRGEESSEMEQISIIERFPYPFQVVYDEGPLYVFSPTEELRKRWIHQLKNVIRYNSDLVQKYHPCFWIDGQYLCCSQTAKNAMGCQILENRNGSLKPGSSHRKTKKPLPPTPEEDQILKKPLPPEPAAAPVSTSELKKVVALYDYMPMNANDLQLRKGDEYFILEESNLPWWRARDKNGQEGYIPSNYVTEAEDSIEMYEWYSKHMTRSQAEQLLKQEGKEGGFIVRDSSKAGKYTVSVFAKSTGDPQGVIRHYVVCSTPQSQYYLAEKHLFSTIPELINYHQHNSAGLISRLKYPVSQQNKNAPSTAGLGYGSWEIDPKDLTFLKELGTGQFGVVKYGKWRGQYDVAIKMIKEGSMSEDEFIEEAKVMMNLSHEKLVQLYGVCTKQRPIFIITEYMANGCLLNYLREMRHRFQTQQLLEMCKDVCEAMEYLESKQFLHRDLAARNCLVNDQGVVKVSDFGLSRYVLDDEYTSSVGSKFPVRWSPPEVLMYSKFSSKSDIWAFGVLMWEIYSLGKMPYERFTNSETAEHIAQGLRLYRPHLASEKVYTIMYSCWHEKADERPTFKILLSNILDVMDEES

Assays:
Assay in all cases: number of time points (of 5) at which kinase-Nluc abundance scored as decreased, DMSO-normalised (count); higher = more persistent destabilization
Settings in all cases: K562; 2-18 h
ALK = ALK (UniProt Q9UM73)
ARAF = ARAF (UniProt P10398)
AURKA = AURKA (UniProt O14965)
AURKB = AURKB (UniProt Q96GD4)
AURKC = AURKC (UniProt Q9UQB9)
BLK = BLK (UniProt P51451)
BMX = BMX (UniProt P51813)
BRAF = BRAF (UniProt P15056)
BRAF_V600E = system: BRAF_V600E
BTK = BTK (UniProt Q06187)

Row | SMILES | number of time points (ALK) | number of time points (ARAF) | number of time points (AURKA) | number of time points (AURKB) | number of time points (AURKC) | number of time points (BLK) | number of time points (BMX) | number of time points (BRAF) | number of time points (BRAF_V600E) | number of time points (BTK)
1 | O[C@@H]1CO[C@H]2[C@@H]1OC[C@H]2Oc1nc2nc(-c3ccc(-c4ccccc4)cc3)c(Cl)cc2[nH]1 (10 µM) | 0 | 0 | 0 | 0 | 0 | 0 | 0 | 0 | 0 | 0
2 | CN1CCC(c2ccccc2CC(C)(C)Nc2nc(N3CCOCC3)nc(-n3c(C(F)F)nc4ccccc43)n2)CC1 [Zandelisib] (10 µM) | 0 | 0 | 0 | 0 | 0 | 0 | 0 | 0 | 0 | 0
3 | CN(C)c1nc2c(Br)c(Br)c(Br)c(Br)c2[nH]1 (10 µM) | 0 | 0 | 0 | 0 | 0 | 0 | 0 | 0 | 0 | 0
4 | Cn1cc(C2=C(c3cn(CCCSC(=N)N)c4ccccc34)C(=O)NC2=O)c2ccccc21 [Ro 31-8220 (mesylate)] (2.5 µM) | 0 | 0 | 3 | 0 | 0 | 2 | 0 | 0 | 2 | 0
5 | c1ccc(-c2nc3c(c(-n4ccc5cnccc54)n2)CCC3)nc1 (10 µM) | 0 | 0 | 0 | 0 | 0 | 0 | 0 | 0 | 0 | 0
6 | Cc1cnc(NC2CCOCC2)nc1-n1cnc(C(=O)N[C@H](CN)c2cc(F)cc(Cl)c2)c1 (10 µM) | 0 | 0 | 0 | 0 | 0 | 0 | 0 | 0 | 0 | 0
7 | O=C1NC(=Nc2c(Cl)cccc2Cl)S/C1=C\c1ccc2nccnc2c1 (2.5 µM) | 2 | 0 | 0 | 0 | 0 | 0 | 0 | 1 | 0 | 0
8 | Cn1cc(-c2cnc3cnn(S(=O)(=O)c4cnc5ccc(-c6cnn(C)c6)cn45)c3c2)cn1 [Glumetinib] (10 µM) | 0 | 0 | 0 | 0 | 0 | 0 | 0 | 0 | 0 | 0
9 | Oc1ccc(/C=C/c2cc(O)cc(F)c2)cc1 [Resveratrol analog 1] (10 µM) | 0 | 0 | 0 | 0 | 0 | 0 | 0 | 0 | 0 | 0
10 | NC1=NCCN1CC(=O)O [Cyclocreatine] (10 µM) | 0 | 0 | 0 | 0 | 0 | 0 | 0 | 0 | 0 | 0
11 | COc1ccc(/C=C/C(=O)C2(C(=O)/C=C/c3ccc(OC)c(OC)c3)CCCCC2)cc1OC (2.5 µM) | 0 | 0 | 0 | 0 | 0 | 0 | 0 | 0 | 1 | 0
12 | COc1cc2ncnc(Nc3ccc(F)c(Cl)c3)c2cc1NC(=O)/C=C/CN1CCCCC1 [Dacomitinib] (10 µM) | 0 | 0 | 0 | 0 | 0 | 0 | 0 | 0 | 0 | 0
13 | C=CC(=O)N1CCC[C@H](n2c(=O)n(-c3ccc(Oc4ccccc4)cc3)c3c(N)ncnc32)C1 [ONO-4059 (analog)] (10 µM) | 0 | 0 | 0 | 0 | 0 | 0 | 0 | 0 | 0 | 0
14 | CNC(=O)c1ccccc1Nc1nc(Nc2ccc3c(c2OC)CCC[C@H](N2CCN(CCO)CC2)C3)ncc1Cl (10 µM) | 1 | 0 | 3 | 4 | 0 | 3 | 2 | 0 | 2 | 0
15 | O=C(O)c1cc(N(Cc2ccccc2O)Cc2ccccc2O)ccc1O [Lavendustin B] (10 µM) | 0 | 0 | 0 | 0 | 0 | 0 | 0 | 0 | 0 | 0
16 | Nc1nccc(Oc2ccc(NC(=O)c3c[nH]cc(-c4ccc(F)cc4)c3=O)cc2F)c1Cl (10 µM) | 3 | 0 | 4 | 4 | 0 | 4 | 0 | 2 | 0 | 0
17 | CC(C)c1cc(/C=C(\C#N)C(=O)NCCCc2ccccc2)cc(C(C)C)c1O (10 µM) | 0 | 0 | 0 | 0 | 0 | 0 | 0 | 0 | 0 | 1
18 | CS(=O)(=O)c1ccc(-c2cnc(N)c(-c3ccc(C(F)(F)F)nc3)c2)cc1 (10 µM) | 0 | 0 | 0 | 0 | 0 | 0 | 0 | 0 | 0 | 0
19 | CCN(CC)CCC(=O)N1N=C(c2c(-c3ccccc3)c3cc(Br)ccc3[nH]c2=O)CC1c1ccc(Br)cc1 (stereo not given) (2.5 µM) | 0 | 0 | 4 | 4 | 0 | 1 | 0 | 0 | 0 | 0

Row | SMILES | number of time points (ALK) | number of time points (ARAF) | number of time points (AURKA) | number of time points (AURKB) | number of time points (AURKC) | number of time points (BLK) | number of time points (BMX) | number of time points (BRAF) | number of time points (BRAF_V600E) | number of time points (BTK)
20 | CNC(=O)c1ccccc1Oc1nc(Nc2cc(OC)c(OC)c(OC)c2)ncc1Br (2.5 µM) | 0 | 0 | 0 | 0 | 0 | 0 | 0 | 0 | 0 | 0
21 | COc1ccc(-c2coc3cc(O)ccc3c2=O)cc1 [Formononetin] (10 µM) | 0 | 0 | 0 | 0 | 0 | 0 | 0 | 0 | 0 | 0
22 | c1ccc(-c2nc(=NCCN3CCOCC3)sn2-c2ccccc2)cc1 [VP3.15 (dihydrobromide)] (10 µM) | 0 | 0 | 0 | 0 | 0 | 0 | 0 | 0 | 0 | 0
23 | CC(C)(C[C@H](N)C(=O)O)C(F)F [NV-5138 (hydrochloride)] (10 µM) | 0 | 0 | 0 | 0 | 0 | 0 | 0 | 0 | 0 | 0
24 | COc1nn(C)cc1Nc1nccc(-c2c[nH]c3c(NC(=O)[C@@H](C)N4CCN(C)CC4)cccc23)n1 (10 µM) | 0 | 0 | 0 | 0 | 0 | 0 | 0 | 0 | 0 | 0
25 | COCCNc1cc(NC(=O)N2CCCc3cc(CN4CCN(C)CC4=O)c(C=O)nc32)ncc1C#N [Roblitinib] (10 µM) | 0 | 0 | 0 | 0 | 0 | 0 | 0 | 0 | 0 | 0
26 | O=C(Nc1nc2ccccc2[nH]1)c1cccc([N+](=O)[O-])c1 [IRAK-4 protein kinase inhibitor 2] (10 µM) | 0 | 0 | 0 | 0 | 0 | 0 | 0 | 0 | 0 | 0
27 | CC1(C)Cc2c(sc(NC(=S)NC(=O)c3ccccc3)c2C(=O)O)CO1 (10 µM) | 0 | 0 | 0 | 0 | 0 | 0 | 2 | 0 | 0 | 0
28 | O=C(O)c1cccc(CN2C(=O)/C(=C(\c3ccccc3)c3ccc(Cl)cc3)c3ccccc32)c1 (2.5 µM) | 0 | 0 | 0 | 0 | 0 | 0 | 0 | 0 | 0 | 0
29 | CCN(CC)c1ccc2cc(-c3nc4cc(C)ccc4o3)c(=O)oc2c1 (10 µM) | 0 | 0 | 0 | 0 | 0 | 0 | 0 | 0 | 0 | 0
30 | O=C(Nc1cccc(Nc2ncc(Br)c(NCCc3cnc[nH]3)n2)c1)N1CCCC1 (10 µM) | 1 | 0 | 0 | 0 | 0 | 3 | 0 | 0 | 1 | 0
31 | Cc1ccn2c(C(=O)C(=O)c3ccccc3)c(-c3ccccc3)nc2c1 (10 µM) | 0 | 0 | 0 | 0 | 0 | 0 | 0 | 0 | 0 | 0
32 | COc1ccc2cc(-c3nc(-c4ccc([S+](C)[O-])cc4)[nH]c3-c3ccncc3)ccc2c1 (stereo not given) [Tie2 kinase inhibitor 1] (2.5 µM) | 0 | 0 | 0 | 0 | 0 | 0 | 0 | 0 | 0 | 0
33 | NC(=S)n1[nH]c(-c2ccc([N+](=O)[O-])cc2)c(N=Nc2cccc(Cl)c2)c1=O (2.5 µM) | 0 | 0 | 0 | 0 | 0 | 0 | 4 | 0 | 0 | 0
34 | Cc1cc(Nc2nc(CC3(C(=O)O)CCN(C(=O)c4cccc(Cl)c4Cl)CC3)ccc2F)n[nH]1 (10 µM) | 0 | 0 | 0 | 0 | 0 | 1 | 2 | 0 | 2 | 0
35 | CCc1cncnc1N1CCN(Cc2nc3ccc(C(F)(F)F)cc3[nH]2)CC1 (10 µM) | 0 | 0 | 0 | 0 | 0 | 0 | 0 | 0 | 0 | 0
36 | CC(C)CNc1ccnc(NCc2csc(-c3ccccc3)n2)n1 [KHS101 hydrochloride] (2.5 µM) | 0 | 0 | 3 | 0 | 0 | 0 | 0 | 0 | 1 | 0
37 | CC/C(=N\NC(=O)c1ccnc(NCCCN2CCOCC2)c1)c1ccc(Cl)cc1O (2.5 µM) | 0 | 0 | 0 | 0 | 0 | 0 | 0 | 0 | 0 | 0

2 entries from above, as a markdown table.

| Row | SMILES | number of time points (ALK) | number of time points (ARAF) | number of time points (AURKA) | number of time points (AURKB) | number of time points (AURKC) | number of time points (BLK) | number of time points (BMX) | number of time points (BRAF) | number of time points (BRAF_V600E) | number of time points (BTK) |
| --- | --- | --- | --- | --- | --- | --- | --- | --- | --- | --- | --- |
| 25 | COCCNc1cc(NC(=O)N2CCCc3cc(CN4CCN(C)CC4=O)c(C=O)nc32)ncc1C#N [Roblitinib] (10 µM) | 0 | 0 | 0 | 0 | 0 | 0 | 0 | 0 | 0 | 0 |
| 26 | O=C(Nc1nc2ccccc2[nH]1)c1cccc([N+](=O)[O-])c1 [IRAK-4 protein kinase inhibitor 2] (10 µM) | 0 | 0 | 0 | 0 | 0 | 0 | 0 | 0 | 0 | 0 |
